Results are given in words; binding and its absence hold for the method and conditions named. Some binding calls cover weakened binding; strength is not graded here.
Target: human γ-IFN (human) (UniProt P01579)
Test: ELISA

Amino acid sequences for entries named in this document (tags omitted). Residues count along the entry.
UniProt P01579, residues 24-166: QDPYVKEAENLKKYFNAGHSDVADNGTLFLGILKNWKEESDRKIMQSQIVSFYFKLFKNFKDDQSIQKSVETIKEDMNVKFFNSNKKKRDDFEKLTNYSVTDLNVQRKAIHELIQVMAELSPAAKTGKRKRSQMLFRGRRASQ

- binding: binds
B1: Chimeric AF2 antibody (antibody, V domains shown)
VH: QVQLQQPGADLVMPGAPVKLSCLASGYIFTSSWINWVKQRPGRGLEWIGRIDPSDGEVHYNQDFKDKATLTVDKSSSTAYIQLNSLTSEDSAVYYCARGFLPWFADWGQGTLVTVSA
VL: NIVMTQSPKSMYVSIGERVTLSCKASENVDTYVSWYQQKPEQSPKLLIYGASNRYTGVPDRFTGSGSATDFTLTISSVQAEDLADYHCGQSYNYPFTFGSGTKLEIK
